Experimental data: PubChem BioAssay AID1259308 (NCATS, 2017)
Screen: 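Genes whose loss raises luciferase production in HEK293 cells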 (primary screen). Cells: human HEK293 embryonic kidney cells stably expressing firefly luciferase (HEK-CMV-Luc2-Hygro). Reagents: single siRNA against human genes, 0.8 pmol siRNA per well. Duration: 72 h. Measured: 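Reporter luminescence and viable-cell signal on separate replicate plates, given as percent of non-targeting control and median/MAD z-scores, plus per-cell luciferase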. Direction: total luciferase, z-score and total luciferase, % of control: higher = more reporter protein produced. Rule for the call: 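An siRNA counts as active if its total luciferase robust z-score exceeds 3; genes with two or more such siRNAs out of three were retested with fresh siRNAs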. Calls: active = raised luciferase; inactive = no rise.
Here is one part, drawn at random, of about 59,000 reagents tested. About 1,510 of them (2.6%) were called active. 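Calls use total luciferase alone and ignore viability, so some active siRNAs may act by altering cell number.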 Not all columns of the deposit are shown.

| target | PubChem SID | total luciferase, z-score | total luciferase, % of control | outcome |
| --- | --- | --- | --- | --- |
| SEC63 | SID160730241 | 0.983 | 101 | inactive |
| SEC63 | SID160730242 | -1.56 | 50.8 | inactive |
| SEC63 | SID160730243 | 0.431 | 90.5 | inactive |
| LGR6 | SID160747029 | -1.73 | 47.5 | inactive |
| LGR6 | SID160747030 | 4.25 | 166 | active |
| LGR6 | SID160747031 | -0.426 | 73.4 | inactive |
| AFTPH | SID160742216 | -0.215 | 77.6 | inactive |
| AFTPH | SID160742217 | -1.77 | 46.7 | inactive |
| AFTPH | SID160742218 | -1.51 | 51.9 | inactive |
| EXOSC6 | SID160755631 | 0.473 | 91.3 | inactive |
| EXOSC6 | SID160755632 | 1.81 | 118 | inactive |
| EXOSC6 | SID160755633 | -0.643 | 69.1 | inactive |
| SMAD2 | SID160776851 | -2.19 | 38.4 | inactive |
| SMAD2 | SID160776852 | -0.25 | 76.9 | inactive |
| SMAD2 | SID160776853 | -2.77 | 26.9 | inactive |
| KCNK2 | SID160776213 | 0.29 | 87.7 | inactive |
| KCNK2 | SID160776214 | -0.0247 | 81.4 | inactive |
| KCNK2 | SID160776215 | 0.669 | 95.2 | inactive |
| PIWIL3 | SID160767872 | -0.844 | 65.1 | inactive |
| PIWIL3 | SID160767873 | -0.488 | 72.2 | inactive |
| PIWIL3 | SID160767874 | -0.721 | 67.6 | inactive |
| RBM18 | SID160754290 | -0.409 | 73.8 | inactive |
| RBM18 | SID160754291 | -1.04 | 61.1 | inactive |
| RBM18 | SID160754292 | -0.649 | 69 | inactive |
| ECD | SID160730475 | 0.919 | 100 | inactive |
| ECD | SID160730485 | 0.314 | 88.1 | inactive |
| ECD | SID160730493 | -0.703 | 67.9 | inactive |
| TMEM200C | SID160725824 | -0.236 | 77.2 | inactive |
| TMEM200C | SID160769531 | 0.717 | 96.1 | inactive |
| TMEM200C | SID160769533 | -1 | 61.9 | inactive |
| ICAM1 | SID160775497 | 1.21 | 106 | inactive |
| ICAM1 | SID160775498 | -1.27 | 56.6 | inactive |
| ICAM1 | SID160775499 | -1.5 | 52.1 | inactive |
| VEGFB | SID160718742 | 0.192 | 85.7 | inactive |
| VEGFB | SID160718743 | -0.785 | 66.3 | inactive |
| VEGFB | SID160718744 | 1.21 | 106 | inactive |
| SIM1 | SID160716743 | -0.504 | 71.9 | inactive |
| SIM1 | SID160716744 | 0.215 | 86.2 | inactive |
| SIM1 | SID160716745 | 0.45 | 90.8 | inactive |
| ABLIM1 | SID160776621 | -0.0711 | 80.5 | inactive |
| ABLIM1 | SID160776622 | 1.74 | 117 | inactive |
| ABLIM1 | SID160776623 | 3.47 | 151 | active |
| MAN1C1 | SID160731585 | -0.615 | 69.7 | inactive |
| MAN1C1 | SID160745679 | -0.62 | 69.6 | inactive |
| MAN1C1 | SID160745680 | 5.62 | 194 | active |
| NXPH4 | SID160730275 | 2.96 | 141 | inactive |
| NXPH4 | SID160730278 | -1.87 | 44.6 | inactive |
| NXPH4 | SID160730279 | -1.7 | 48.2 | inactive |
| ZNF500 | SID160737532 | 0.893 | 99.6 | inactive |
| ZNF500 | SID160737533 | 1.49 | 112 | inactive |
| ZNF500 | SID160737535 | 0.35 | 88.8 | inactive |
| CD302 | SID160723486 | 1.14 | 105 | inactive |
| CD302 | SID160723487 | 0.117 | 84.2 | inactive |
| CD302 | SID160732226 | 0.105 | 84 | inactive |
| ADCK1 | SID160745693 | 0.339 | 88.6 | inactive |
| ADCK1 | SID160745695 | 1.42 | 110 | inactive |
| ADCK1 | SID160745696 | -0.635 | 69.3 | inactive |

Called active (from the list above):
| target | PubChem SID | total luciferase, z-score | total luciferase, % of control | outcome |
| --- | --- | --- | --- | --- |
| LGR6 | SID160747030 | 4.25 | 166 | active |
| ABLIM1 | SID160776623 | 3.47 | 151 | active |
| MAN1C1 | SID160745680 | 5.62 | 194 | active |
